For one molecule, IC50 results are on record in ChEMBL document CHEMBL1135234, “2-Arylindoles as gonadotropin releasing hormone (GnRH) antagonists: optimization of the tryptamine side chain” (Bioorg Med Chem Lett, 2002).

The chains behind the UniProt entries cited, without tags or fusion partners.
UniProt P08684, whole entry: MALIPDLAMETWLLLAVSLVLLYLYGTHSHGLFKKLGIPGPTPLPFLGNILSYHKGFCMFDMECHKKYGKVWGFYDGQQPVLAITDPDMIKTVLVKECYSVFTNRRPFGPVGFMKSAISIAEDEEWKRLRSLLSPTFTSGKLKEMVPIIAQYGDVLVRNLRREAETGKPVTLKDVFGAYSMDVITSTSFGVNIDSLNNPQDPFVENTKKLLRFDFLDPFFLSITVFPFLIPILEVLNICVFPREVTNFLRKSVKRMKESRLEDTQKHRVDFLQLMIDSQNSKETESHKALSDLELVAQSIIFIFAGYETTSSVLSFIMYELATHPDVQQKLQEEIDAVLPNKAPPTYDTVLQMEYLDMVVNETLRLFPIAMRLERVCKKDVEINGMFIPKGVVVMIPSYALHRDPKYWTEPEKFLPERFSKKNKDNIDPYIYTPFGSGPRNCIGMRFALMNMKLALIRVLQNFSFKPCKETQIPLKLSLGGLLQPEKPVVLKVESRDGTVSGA

The target of this test is Cytochrome P450 3A4 (Homo sapiens, UniProt P08684). The test can be described thus: Inhibition of cytochrome P450 3A4 enzyme.

Structures are written as SMILES.

The term IC50 denotes the concentration that inhibits the measured activity by half. Higher therefore signals weaker potency. `Cc1cc(C)cc(-c2[nH]c3ccc(C(C)(C)C(=O)N4CC5CCC4CC5)cc3c2[C@H](C)CNCCc2ccc3nn[nH]c3c2)c1` showed an IC50 of 7.5 µM.
